Measurements reported in paper PMC5698428.

Amino acid sequences for entries named in this document (tags omitted).
UniProt P40763, whole entry Y640F: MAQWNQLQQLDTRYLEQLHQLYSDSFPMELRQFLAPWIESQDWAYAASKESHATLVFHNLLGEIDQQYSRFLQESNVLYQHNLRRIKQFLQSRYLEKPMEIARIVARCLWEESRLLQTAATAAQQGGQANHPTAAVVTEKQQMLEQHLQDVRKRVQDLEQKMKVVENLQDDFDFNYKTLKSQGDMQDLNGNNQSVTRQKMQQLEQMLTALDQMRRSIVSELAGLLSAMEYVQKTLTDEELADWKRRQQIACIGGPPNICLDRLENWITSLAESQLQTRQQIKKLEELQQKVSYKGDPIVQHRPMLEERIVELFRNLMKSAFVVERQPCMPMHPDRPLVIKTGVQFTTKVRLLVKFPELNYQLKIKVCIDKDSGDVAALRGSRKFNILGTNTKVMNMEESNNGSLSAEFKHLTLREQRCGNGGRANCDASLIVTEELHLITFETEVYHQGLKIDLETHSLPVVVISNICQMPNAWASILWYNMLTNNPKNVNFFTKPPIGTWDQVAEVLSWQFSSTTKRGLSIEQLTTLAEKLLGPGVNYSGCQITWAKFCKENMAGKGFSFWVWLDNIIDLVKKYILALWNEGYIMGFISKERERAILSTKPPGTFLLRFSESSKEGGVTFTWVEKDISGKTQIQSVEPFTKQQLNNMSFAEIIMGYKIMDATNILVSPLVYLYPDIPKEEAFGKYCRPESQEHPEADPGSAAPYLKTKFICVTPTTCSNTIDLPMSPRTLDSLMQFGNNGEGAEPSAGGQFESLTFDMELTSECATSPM

Target: Etag-STAT3 Y640F (UniProt P40763)
Experiment: EMSA, supershift
Conditions: 10 mM Hepes pH 7.8, 1 mM EDTA, 5 mM MgCl2, 10% glycerol, 5 mM DTT, 2 mM Pefabloc SC, 1 mg/ml BSA, 0.1 mg/ml poly(dI-dC), 5 ug nuclear extract, ~10 fmol probe, 10 min, protein in a lysate after overexpression, label: alpha-32P dATP (Klenow fill-in)

Sequence | binding result (IFNa2 5 ng/ml 15 min) | binding result (LIF 15 ng/ml 15 min)
CGATTCCTGGAACTGCGCGG / CAGCATTTCCGCGCAGTTCCAGGAA [SOCS3 promoter probe] | binds | binds
GATCCGGGAGGGATTTACGGGAAATGCTG (double strand) [cFOS promoter probe] | binds | binds

The exact form of at least one protein or probe is not confirmed. At least one result comes from cells or an extract, where the contact may be indirect.
